Reference: the supplement of paper PMC3334620
In all, about 33,000 sequences were measured (“E-score (-0.5 to 0.5)”: median about -8e-05, highest 2% from about 0.23 on). The list shows a part of the results.

target: T1, Nrg2 (UniProt P38082); experiment: PBM E-score (8-mer binding enrichment) (E-score (-0.5 to 0.5)); higher = stronger / more preferred TF binding; details: protein concentration: 100 nM; construct: GST-full length
T1 sequence: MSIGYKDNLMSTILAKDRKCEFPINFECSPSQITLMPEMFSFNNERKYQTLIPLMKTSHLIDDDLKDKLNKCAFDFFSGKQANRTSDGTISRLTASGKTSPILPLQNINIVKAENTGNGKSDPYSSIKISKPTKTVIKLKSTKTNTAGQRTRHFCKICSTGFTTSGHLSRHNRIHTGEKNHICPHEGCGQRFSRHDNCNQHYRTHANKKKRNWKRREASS
Summary of the method: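 The E-score, a modified Wilcoxon-Mann-Whitney statistic, was computed by the Universal PBM Analysis Suite for every ungapped eight-base word pooled with its reverse complement. Scans behind it were normalised with masliner after bound GST-tagged yeast transcription factors were detected with fluorescent anti-GST. The proteins, at about 100-200 nM, had been applied to universal all-10-mer Agilent arrays made double-stranded by primer extension.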

Sequence | PBM E-score
TCCTTTCA | 0.0779
AACAGGAC | -0.0901
AACCGCCG | -0.0452
AGACAATG | -0.0393
TCAATCGA | 0.115
ATCCCAAA | 0.0552
AGAAACAG | -0.012
CAGAGTGG | -0.0767
ACGTAGTG | -0.0314
GATTACCA | 0.00091
CATTAGGG | -0.0266
AAAGTAGT | 0.0374
AGACGCCT | -0.193
ACATCACA | 0.12
AACTACTA | 0.296
GCCGATTA | 0.104
GCGTCAGA | 0.104
ATTGCCCC | -0.00346
CCAGGCCC | 0.00251
CCTACTAC | -0.0683
GCCGTGCA | -0.0954
TAACTGGA | -0.0611
GGCCTACC | 0.0167
CCTAGGTC | 0.00388
ATGAGTAC | 0.0946

Look-ups from the entries so far.
PBM E-score with CCAGGCCC is entered as 0.00251
PBM E-score with GCGTCAGA is entered as 0.104
PBM E-score with TAACTGGA is entered as -0.0611
PBM E-score with AAAGTAGT is entered as 0.0374

Carrying on.

Sequence | PBM E-score
CCTCGTAC | 0.0199
AACTTTTA | 0.066
CCTCAAAA | 0.0802
GCTTTACC | -0.044
CTGTCAAG | -0.061
GGAACCCC | -0.0672
CTGACAAG | 0.0826
CTAATATA | 0.13
AAGACGCC | -0.0542
AGGCCAGG | 0.122
ATCAAAAG | 0.00066
GTAGCCGA | -0.0629
CACCTGCA | -0.125
GAACGTGA | -0.0419
GCCTCGTA | 0.0621
ACAGACGC | -0.0339
ACCCTTTC | 0.125
GACGCTCC | -0.124
CATGCTAA | 0.0377
GGGCGCCC | 0.282
CGTCGGAG | -0.0424
CTAATGCA | 0.116
ATAAACCG | 0.109
CACGTCTC | 0.00538
GCGCACCC | 0.0702

Sequence | PBM E-score
GCCTGAAA | 0.115
ACACACGG | -0.0545
AACCGACC | 0.0889
GAATAACC | 0.0897
CAACGCAG | -0.0929
ATGCTGAG | -0.169
CGCAGTTA | -0.0242
ACTGGTCT | -0.245
AATAAGCC | 0.0777
ATGAGCAT | 0.0227
CCGCCTGA | -0.0981
CAGGTTTA | 0.00341
AGCGATGA | 0.0315
TAAGACGA | -0.008
ATGAGAAA | 0.0922
ACGGTGCC | -0.128
ACAAAGTC | -0.0258
CAGATATC | 0.133
AGTGTCAA | -0.0281
ACTAGACT | -0.224
CCCGCACG | -0.156
ACCTAGGT | 0.0136
AGTGAAAA | 0.00081
CCGCTGAC | -0.154
GTATCGCA | -0.0868

Sequence | PBM E-score
GAATCACC | 0.0858
CGGGACCG | -0.0394
GCGGGCTA | -0.156
ACGAGCAT | -0.14
CCGTACTA | 0.192
GATTACTA | 0.0272
AAACCCCG | 0.148
CACTAGCG | -0.0585
CCAGGGTA | 0.304
CAAGCCTA | -0.00885
CTTTGGAC | 0.0441
ATTCTCGG | 0.0274
ACCAACGA | -0.0218
GTCACCAC | -0.185
GCACAAGA | 0.105
TCCCGAGA | -0.0695
CAAGGTCC | -0.0334
AGCTTTCG | -0.106
ACGTTACG | -0.127
TATCCCAA | -0.005
AGACTTAG | -0.237
GTAACCCA | 0.229
ACGACACG | 0.0863
AGGAACAA | 0.0122
ACTAAGAA | 0.221

Sequence | PBM E-score
AGTTCGGC | -0.0543
TATGAGGA | -0.16
TACATTGA | 0.0248
CCTAGTTA | 0.0772
CATCGTAG | -0.227
CCCACTCA | -0.1
GGACCAAA | 0.0688
GGCCATAC | 0.0138
ACGAGTCC | -0.00759
ACGCTTAC | 0.0218
ATTGTAGC | -0.0306
CATATCAC | 0.0206
ATCTATCC | 0.0522
AGGTATCA | 0.0486
CCGAACAC | -0.0339
ATTGCTAC | -0.0978
AAGAGAAT | 0.231
TCGTAAGA | -0.0328
GTGTAACA | 0.0279
CGGGAACC | -0.101
AAGTGTTC | 0.0551
AAGTATGA | 0.0335
GTAGTCAA | -0.0818
GGATAGCC | -0.177
GCCCCTAC | -0.0126

Sequence | PBM E-score
AGTTAAAA | 0.167
ACAAGGTA | 0.0234
AATAGCGC | 0.132
CTGGCCCC | 0.163
CTACTGGC | -0.0271
AACACTCG | 0.0879
GGTCCACA | -0.00829
AAAGGACC | -0.0133
CTCTGAGC | -0.16
ATGACCAA | 0.0462
CTCCAGCA | -0.0907
CTCGTCCA | -0.0137
AAGATCGA | 0.0393
GTCATGAA | 0.118
AATGTGAT | 0.0439
ACGGTCGC | -0.131
GTCGACCA | -0.114
GATTCACC | -0.045
AGCGCACC | 0.00999
AGGCTACT | -0.0686
AGGGTGTA | 0.116
AAATGAGG | -0.0974
GCCTCGCC | -0.218
ATGTCGAC | 0.254
AAACTCCG | -0.0654

Sequence | PBM E-score
GTATATAC | 0.0119
ACCTTTAA | -0.13
TCGACGCA | 0.0386
CTGTCATC | -0.0897
CATTAAGC | 0.108
CCTTCTCA | 0.097
CTTTGTGA | -0.0138
AAAGAGTA | 0.0331
ACCCGGCC | -0.357
CGGAAGTC | -0.0537
AGCTTTGA | 0.0144
CCTGAAAG | 0.155
GATTGGTA | 0.143
AGGCAACG | 0.0301
GACCCCTC | -0.0409
GACCACAC | -0.0745
GCGCGCGC | 0.415
GGCCCTAC | -0.109
CAGCCGGC | 0.0375
CAGGGTAC | 0.235
AACCCGAT | 0.122
AGAAGGCT | -0.296
